Experimental data: PubChem BioAssay AID1224826 (NIAID, 2016)
The deposit covers about 17,000 reagents; this is a part drawn at random. Of all reagents, about 1,110 (6.6%) are marked active. 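Active means lowered or raised reporter signal; replicate intensities are raw and not normalised per plate.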 A number with no mark means an inactive call. Not all columns of the deposit are shown.

- Screen: 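Regulators of Tlr4 signalling leading to Tnf-alpha expression in macrophages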 (primary screen)
- Cells: RAW264.7 G9 macrophages from mouse bearing reporters for p65 (GFP) and the Tnf promoter (mCherry)
- Reagents: siRNA pool against mouse genes, 100 nM
- Time to read-out: 16 h of LPS stimulation, after 2 days of siRNA transfection
- Treatment: bacterial lipopolysaccharide (Salmonella minnesota R595), 10 ng/ml
- Measurement: 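Imaged Tnf reporter mCherry in nuclei, minus background, normalised per plate to the median and expressed as robust z-scores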
- Direction: Tnf reporter robust z-score: higher = stronger Tnf promoter reporter signal after LPS
- Rule for the call: 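Called active when robust z-score is at most -1.3, matching the median of the Tlr4 knock-down control, or over 3; control wells and wells with under 50 cells never active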
- Meaning of the calls: active = Tnf reporter clearly lowered or raised; inactive = no clear change in Tnf reporter

target | Tnf reporter robust z-score | fewer than 50 cells in well
Sval2 (GeneID 84543) | 2.41 | enough cells in well
A930017M01Rik (GeneID 239410) | 1.39 | enough cells in well
Fmo1 (GeneID 14261) | 1.44 | enough cells in well
Clu (GeneID 12759) | 0.15 | enough cells in well
Atp5mf (GeneID 57423) | -0.73 | enough cells in well
4930503E14Rik (GeneID 74954) | 0.21 | enough cells in well
Exph5 (GeneID 320051) | 0.32 | enough cells in well
Col4a6 (GeneID 94216) | -0.63 | enough cells in well
Degs2 (GeneID 70059) | – | fewer than 50 cells per well; well left out of calls
Csde1 (GeneID 229663) | 0.52 | enough cells in well
Oacyl (GeneID 319888) | – | fewer than 50 cells per well; well left out of calls
Cadps2 (GeneID 320405) | -0.02 | enough cells in well
Cd209d (GeneID 170779) | -0.19 | enough cells in well
Or2at1 (GeneID 258353) | – | fewer than 50 cells per well; well left out of calls
Cndp1 (GeneID 338403) | -0.64 | enough cells in well
Usp17lc (GeneID 13532) | 1.2 | enough cells in well
Abhd2 (GeneID 54608) | -0.28 | enough cells in well
Xrn2 (GeneID 24128) | -0.65 | enough cells in well
Ptpn7 (GeneID 320139) | -0.52 | enough cells in well
Dph5 (GeneID 69740) | -0.44 | enough cells in well
Ccnb1 (GeneID 268697) | 1.75 | enough cells in well
Cd209c (GeneID 170776) | -2.08 (active) | enough cells in well
Pcbp2 (GeneID 18521) | -0.7 | enough cells in well
Gpm6a (GeneID 234267) | 0.52 | enough cells in well

3 neighbouring entries from above, for reference:
target | Tnf reporter robust z-score | fewer than 50 cells in well
Cndp1 (GeneID 338403) | -0.64 | enough cells in well
Usp17lc (GeneID 13532) | 1.2 | enough cells in well
Abhd2 (GeneID 54608) | -0.28 | enough cells in well
